From paper PMC7819943, “Rice protein-binding microarrays: a tool to detect cis-acting elements near promoter regions in rice” come the findings set out here.

Some of the results follow.

This assay has as its target T1, OsSMF1 (Oryza sativa, UniProt Q6ZLB0 1-436).
T1 sequence: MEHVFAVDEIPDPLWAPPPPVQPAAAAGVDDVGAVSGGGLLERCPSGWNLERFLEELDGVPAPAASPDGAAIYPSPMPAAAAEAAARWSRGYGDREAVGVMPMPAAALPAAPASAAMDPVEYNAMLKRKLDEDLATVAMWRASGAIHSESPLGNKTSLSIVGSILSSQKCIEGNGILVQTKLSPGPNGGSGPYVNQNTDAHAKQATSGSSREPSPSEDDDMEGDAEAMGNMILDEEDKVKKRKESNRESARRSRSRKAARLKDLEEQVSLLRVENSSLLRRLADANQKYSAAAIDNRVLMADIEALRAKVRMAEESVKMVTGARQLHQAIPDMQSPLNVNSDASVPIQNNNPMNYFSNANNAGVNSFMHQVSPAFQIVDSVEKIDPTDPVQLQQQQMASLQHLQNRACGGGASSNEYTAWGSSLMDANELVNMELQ
Description: protein-binding microarray (RPBM); PBS, 2% BSA, 51.3 ng/ul salmon testes DNA, 50 uM zinc acetate, 200 nM TF, 25 C, 1 h; high values mean tight binding. Particulars: protein: recombinant; tags: N-terminal polyhistidine and DsRed monomer fusion (pET32a); chain copies: 2; label: CyDye5-dUTP incorporated in the synthesized complementary strand; 3' TTTTT single-stranded linker to array surface; dsDNA, one strand shown. In outline:
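For the binding signal, per-feature fluorescence intensity was read in arbitrary units on an Axon 4000B scanner. Before scanning, a 2% BSA-blocked custom Agilent array made double-stranded with Cy5-dUTP was washed after 1 h at 25 °C with 200 nM protein and 50 µM zinc acetate. The proteins were Ni–NTA-purified transcription factors with N-terminal polyhistidine and DsRed fusions, expressed in E. coli BL21-CodonPlus.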
With “CCTTGCCACGGTGGGCCGGCTCGGCATGGCCCGATCTAATCGGAGTCACCTAGTGCAG”, the binding signal is 3190 fluorescence intensity (a.u.). With “ACTCGGAGATCTGTGCAAGATGATCATGCACGATATGATCCGGAGTCACCTAGTGCAG”, the binding signal is 3190 fluorescence intensity (a.u.). Regarding “ATAGTTAATTAATGATGCATTAGAAGCCTTAGTAGATTGGCGGAGTCACCTAGTGCAG”, the binding signal was 27100 fluorescence intensity (a.u.).

For “AATTTTCATATGCATCATGCTGCACGTGGATCAGAAGCACCGGAGTCACCTAGTGCAG”, the binding signal is 3570 fluorescence intensity (a.u.). For “TTCCTCCAGGTCACCTCCTCCCCTCTCGCTGACTGCGGGACGGAGTCACCTAGTGCAG”, the binding signal is 5680 fluorescence intensity (a.u.).

On to “TGTGACACGATTTTGCAGTCCACACGAACAGGCCCATCTGCGGAGTCACCTAGTGCAG”, for which the binding signal is 3560 fluorescence intensity (a.u.). Then “GATGAGCTCGTCCACCACGTCGACGCCCCGTCGGTGTGTCCGGAGTCACCTAGTGCAG”, with 8050 fluorescence intensity (a.u.). Turning to “CCAAGCACTAATCACGATTAGCCTTCTGACTAATCACACTCGGAGTCACCTAGTGCAG”, the binding signal is 5430 fluorescence intensity (a.u.). For the sequence “TAGTACGCTCGGTTCGTGGAACCCCACTCTCCAATCCCCACGGAGTCACCTAGTGCAG”, the binding signal is 3480 fluorescence intensity (a.u.). For the sequence “TCCCCTCACGGTGGCGTGACATGCACCAATCTCGCCCCAACGGAGTCACCTAGTGCAG”, the binding signal was 3380 fluorescence intensity (a.u.). Regarding “AGCCACCTCTCTCTCTCCTATCGTTTTGACCACAGAAACCCGGAGTCACCTAGTGCAG”, the binding signal was 3210 fluorescence intensity (a.u.). On to “CCGGCCCACGTCAGCCTGCCGCGCCTACCGTTGACTCTCCCGGAGTCACCTAGTGCAG”, for which the binding signal was 20100 fluorescence intensity (a.u.). Consider “AATGGCATGCACGTGCTTAATTAATTCCCATTTGCATGTTCGGAGTCACCTAGTGCAG”, for which the binding signal is 3500 fluorescence intensity (a.u.).

For “GTCATGGATCAAATCATCATGTATATCATCCGTCGTCGTGCGGAGTCACCTAGTGCAG”, the binding signal is 3180 fluorescence intensity (a.u.).

With “GCCACAAAGCACTCAAATACTTCCTTCAATCATAAATATTCGGAGTCACCTAGTGCAG”, the binding signal was 3310 fluorescence intensity (a.u.). On to “CTACTGCCTTTGGTGCATAGTATACACTGCACACACTTAACGGAGTCACCTAGTGCAG”, for which the binding signal was 3630 fluorescence intensity (a.u.).

As for “AACATATCTATGAGAATATCTGTTGTTAACAGCTGTGCGTCGGAGTCACCTAGTGCAG”, the binding signal was 3490 fluorescence intensity (a.u.). Turning to “AAATCTGGGCCGCTGCTCTCGAATCTTTCTTTTCCTTTCCCGGAGTCACCTAGTGCAG”, the binding signal was 3630 fluorescence intensity (a.u.). As to “CAACTTGCTGGCTATAAAACAACCACATCATCTATATCCCCGGAGTCACCTAGTGCAG”, the binding signal is 4810 fluorescence intensity (a.u.). As to “AGCTTCAAGATGGTTCTAGAGTGTCACTGAGATGCCTGAACGGAGTCACCTAGTGCAG”, the binding signal was 13200 fluorescence intensity (a.u.). In the case of “GCTCAAGCTCCGTCACTGTAAAAGTATCCTGTATCCAATGCGGAGTCACCTAGTGCAG”, the binding signal was 35500 fluorescence intensity (a.u.). Under “CTATCCCATCGTCGCATCGAGCCAACGTAGCCGCCACGTTCGGAGTCACCTAGTGCAG” stands 34400 fluorescence intensity (a.u.); under “TATATATATATCACCAATCAAACCTGGCCAAACTTGCTTGCGGAGTCACCTAGTGCAG”, 3320 fluorescence intensity (a.u.).
